According to patent US20070218502A1:
No constants are given. Whether binding was seen depends on the method and setting. Some binding calls cover weakened binding; strength is not graded here.

Chains of the proteins cited; added tags and fusions are not shown. Lines headed by an entry give the natural chain unless they say otherwise; changes in a name come on top.
UniProt P60953: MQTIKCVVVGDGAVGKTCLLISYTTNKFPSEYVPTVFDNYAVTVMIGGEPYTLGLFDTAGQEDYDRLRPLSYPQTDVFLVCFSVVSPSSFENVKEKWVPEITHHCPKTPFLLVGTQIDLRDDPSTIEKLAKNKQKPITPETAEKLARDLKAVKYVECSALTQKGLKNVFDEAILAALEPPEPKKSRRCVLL
UniProt P42768: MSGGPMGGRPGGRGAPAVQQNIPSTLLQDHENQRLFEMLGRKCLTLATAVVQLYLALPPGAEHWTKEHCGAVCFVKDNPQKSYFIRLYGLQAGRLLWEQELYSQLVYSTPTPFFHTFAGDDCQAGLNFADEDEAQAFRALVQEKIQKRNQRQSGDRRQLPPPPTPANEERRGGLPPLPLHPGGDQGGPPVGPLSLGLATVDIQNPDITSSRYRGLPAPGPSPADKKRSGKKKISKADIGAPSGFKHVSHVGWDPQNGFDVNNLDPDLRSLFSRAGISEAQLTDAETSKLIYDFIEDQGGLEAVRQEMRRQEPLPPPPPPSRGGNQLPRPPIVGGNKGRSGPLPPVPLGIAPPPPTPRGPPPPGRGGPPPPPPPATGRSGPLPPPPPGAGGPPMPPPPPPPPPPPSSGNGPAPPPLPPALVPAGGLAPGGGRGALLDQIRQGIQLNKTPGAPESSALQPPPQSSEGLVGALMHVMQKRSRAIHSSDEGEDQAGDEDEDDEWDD

Target: cdc42-GTPγS (recombinant 6His-tagged cdc42 loaded with GTPγS) (UniProt P60953)
Assay: fluorescence of dye-labeled CBD in solution

Row | binding | Substance
1 | binds | mero-CBD I233C conjugate (Cdc42-binding fragment of human WASP, amino acids 201 to 321, I233 mutated to cysteine, labeled with merocyanine dye) (from UniProt P42768 201-321)
2 | binds | mero-CBD D264C conjugate (Cdc42-binding fragment of human WASP, amino acids 201 to 321, D264 mutated to cysteine, labeled with merocyanine dye) (from UniProt P42768 201-321)
